Measured values as given in patent US20260308278A1, “ANTIBODY THAT BINDS TO C3bBb” (Hoffmann-La Roche Inc., priority 2023, published 2026).

System: human C3bBb complex
Assay: Stability (decay) of C3bBb complexes with different Bb subunits by Bio Layer Interferometry
Type: binding

Substance | prevalence of main species (Mg2+, double exponential fit) | prevalence of main species (Ni2+, single exponential fit)
wt FB: Unmutated FB is indicated in SEQ ID NO: 491 | 93% | 100%
FB (D279G): FB with a D279G mutation is indicated in SEQ ID NO: 492 | 97% | 100%
